For test [1], the target named is T1, LuxR (Aliivibrio fischeri, UniProt P35327). As to conditions: 5 μM synthetic ligand against 5 μM OHHL; V. fischeri ES114 (Δ-luxI); normalized to OHHL.
Test [2] addresses T1, LuxR. As to conditions: 200 μM ligand; V. fischeri ES114 (Δ-luxI); normalized to OHHL.

By UniProt entry, the sequences of proteins in these tests, tags left out.
UniProt P35327, whole entry: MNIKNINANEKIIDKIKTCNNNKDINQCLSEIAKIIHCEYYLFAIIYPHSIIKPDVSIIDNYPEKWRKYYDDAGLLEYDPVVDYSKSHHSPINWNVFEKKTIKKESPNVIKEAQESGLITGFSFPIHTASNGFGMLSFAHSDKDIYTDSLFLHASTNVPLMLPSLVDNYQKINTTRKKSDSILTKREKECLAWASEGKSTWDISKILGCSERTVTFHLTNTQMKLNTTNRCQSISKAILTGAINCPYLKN

Structures were worked out from names or drawings and are uncertain.

As to `O=C(CCc1ccc(Br)cc1)N[C@H]1CCOC1=O`, on LuxR [1], the “V. fischeri-LuxR Inhibition [%]” value worked out at 80%. Also, the “V. fischeri-LuxR Activation [%]” value on LuxR [2] was 2%.

The values above are taken from US7910622B2, “Modulation of bacterial quorum sensing with synthetic ligands” (Wisconsin Alumni Research Foundation, priority 2007, dated 2011).
